Experimental data: publication doi:10.1101/2025.08.23.671895
Results are given in words; binding and its absence hold for the method and conditions named. Some results given as binding are weak or reduced against the parent protein; the word gives no strength.

Chains of the proteins cited; added tags and fusions are not shown. Residues count along the entry.
UniProt P02943, 26-446: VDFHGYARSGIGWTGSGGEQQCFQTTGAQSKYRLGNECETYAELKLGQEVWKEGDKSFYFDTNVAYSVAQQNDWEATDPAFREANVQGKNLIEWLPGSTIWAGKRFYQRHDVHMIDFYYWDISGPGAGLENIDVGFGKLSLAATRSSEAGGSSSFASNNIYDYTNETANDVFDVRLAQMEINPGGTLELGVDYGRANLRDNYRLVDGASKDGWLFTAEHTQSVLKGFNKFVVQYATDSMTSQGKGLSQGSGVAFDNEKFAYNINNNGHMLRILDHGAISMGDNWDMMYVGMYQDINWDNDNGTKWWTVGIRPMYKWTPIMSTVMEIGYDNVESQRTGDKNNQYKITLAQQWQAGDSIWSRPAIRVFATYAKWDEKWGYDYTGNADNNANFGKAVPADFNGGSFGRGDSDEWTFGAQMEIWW

Columns and labels:
[1] = target: maltoporin (UniProt P02943); test: negative-staining EM
[2] = target: aquaporin-12 (UniProt Q8IXF9); test: SEC + other: negative-staining EM

Molecule | binding [1] | binding [2]
maltoporin (from UniProt P02943 26-446) | binds | –
aquaporin-12 (protein, UniProt Q8IXF9 1-295) MAGLNVSLSFFFATFALCEAARRASKALLPVGAYEVFAREAMRTLVELGPWAGDFGPDLLLTLLFLLFLAHGVTLDGASANPTVSLQEFLMAEQSLPGTLLKLAAQGLGMQAACTLMRLCWAWELSDLHLLQSLMAQSCSSALRTSVPHGALVEAACAFCFHLTLLHLRHSPPAYSGPAVALLVTVTAYTAGPFTSAFFNPALAASVTFACSGHTLLEYVQVYWLGPLTGMVLAVLLHQGRLPHLFQRNLFYGQKNKYRAPRGKPAPASGDTQTPAKGSSVREPGRSGVEGPHSS | – | binds
